Reference: patent US20220356233A1
Residue numbers refer to the chain shown, from its start. These are yes or no findings as the source states them, for the method shown. Some binding calls cover weakened binding; strength is not graded here. Each block holds one binder with its values, some of them ahead of it.

Chains of the proteins cited; added tags and fusions are not shown. Residues count along the entry.
UniProt P05067, residues 672-713: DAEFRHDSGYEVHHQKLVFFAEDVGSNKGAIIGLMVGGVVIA

Target: Aβ (assembly state not specified) (UniProt P05067)
Assay: indirect ELISA of 293-F supernatants on Aβ42 protofibrils, monomers and fibrils; class in Table 4

binding: binds
B1: mAbSL 513 (antibody, V domains shown)
VH: QQQLVESGGGLVKPGASLTLTCTASGFSFSRYSDMCWVRQPPGKGLEWIACIGISSGTTYYASWAKGRFTISKTSSTTVTLQMTSLTAADTATYLCTRAIGPFHFNLWGPGTLVTVSS
VL: AIVMTQTPSSRSVPVGDTVTISCQASESVYNNNRLAWYQQKAGQPPKLLIYGASTLASGVPSRFKGSGSGTQFTLTISDVVCDDAATYYCAGYKSGSTDGCAFGGGTEVVVKG

binding: binds
B2: mAbSL 550 (antibody, V domains shown)
VH: B1 VH with Y32D, T58I, S63N, K66R, L95F, T97A
VL: B1 VL with R11K, S22D, N31S, N32K, A42P, I77V, S97I, T98G, C101I
